No constants are given. Whether binding was seen depends on the method and setting. In cells and extracts the contact can be indirect. A yes stands for co-enrichment or nearness to the bait. Other partners may have been found.
Biological target: Streptag-FLAG (SF)-tagged FBXW5 (human) (UniProt Q969U6)
Assay: affinity purification with mass spectrometry; SF-FBXW5 transiently expressed in HEK293T, MLN4924 for 4 h, lysis buffer 50 mM Tris pH 7.4, 150 mM NaCl, 2 mM EDTA, 10% glycerol, 0.5% NP-40; Streptactin or FLAG-M2 beads; MudPIT

Chains of the proteins cited; added tags and fusions are not shown.
UniProt Q969U6: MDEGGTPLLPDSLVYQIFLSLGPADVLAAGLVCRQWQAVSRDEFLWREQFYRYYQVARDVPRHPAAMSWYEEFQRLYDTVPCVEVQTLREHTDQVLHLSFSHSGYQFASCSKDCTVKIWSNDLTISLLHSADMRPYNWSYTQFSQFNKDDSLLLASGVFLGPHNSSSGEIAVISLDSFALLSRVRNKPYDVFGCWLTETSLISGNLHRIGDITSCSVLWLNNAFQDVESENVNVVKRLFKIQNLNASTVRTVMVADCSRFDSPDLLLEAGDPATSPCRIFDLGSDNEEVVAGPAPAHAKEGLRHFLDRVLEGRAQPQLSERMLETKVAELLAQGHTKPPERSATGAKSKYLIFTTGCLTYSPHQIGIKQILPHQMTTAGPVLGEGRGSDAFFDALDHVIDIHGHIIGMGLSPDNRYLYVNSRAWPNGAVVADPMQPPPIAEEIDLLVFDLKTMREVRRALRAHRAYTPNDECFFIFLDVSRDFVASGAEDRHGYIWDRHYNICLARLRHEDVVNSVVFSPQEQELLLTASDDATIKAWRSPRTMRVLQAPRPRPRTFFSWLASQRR
UniProt P63208: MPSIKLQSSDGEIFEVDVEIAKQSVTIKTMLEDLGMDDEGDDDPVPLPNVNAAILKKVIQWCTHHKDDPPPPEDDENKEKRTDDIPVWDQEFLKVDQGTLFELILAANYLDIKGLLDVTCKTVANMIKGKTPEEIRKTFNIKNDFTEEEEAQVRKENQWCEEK

“endogenous SKP1 (from UniProt P63208 1-163)” was tested, and the binding was “binds”.

— paper PMC6351106
